Data as given in PubChem BioAssay AID256 (DTP/NCI, 2004).
The list does not hold the whole screen: it is rich in T/C values a quarter to a half above the control, in often repeated tests (any T/C) and in doses without a T/C. Further doses and runs are listed elsewhere. T/C: endpoint of the treated group in % of that of the vehicle group. Some doses have a count of surviving animals in place of a T/C: the source files T/C as zero there, which appears to mark a toxic dose or a test without result, not a measured value. Some doses without a T/C left all or most animals alive at the check, yet need not have been tolerated: the source hardly ever lists a survival T/C far under the control, and the zero likely stands for such cases as well. Counts of survivors are from the toxicity check (mostly the fifth day) where no day follows; animals may have died later. Schedule codes are those of the source, taken here to give the interval after Q, in days (D) or hours (H), and the number of doses after X. Some doses were run more than once; the results are listed from low to high. For survival time, this PubChem deposit counts one and a half times the control or more as active, and values a quarter to a half above the control carry no call in these data; other NCI protocols may use other cut-offs. Some T/C values carry the count of animals alive at the toxicity check (mostly the fifth day); without a count, all were alive then.

System: CD2F1 mice, L1210 leukemia ip, survival T/C
Assay: NCI In Vivo Anticancer Drug Screen. Data for tumor model L1210 Leukemia (intraperitoneal) in CD2F1 (CDF1) mice
Conditions: higher T/C = longer survival
Outline: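 Implant tumor; dose compound or vehicle; measure endpoint in both groups; report treated divided by control.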

[1] = T/C endpoint: mean survival time, dose: 400.0 mg/kg/injection, schedule: Q01DX001 (ip), vehicle: saline with Tween-80
[2] = T/C endpoint: mean survival time, dose: 400.0 mg/kg/injection, schedule: Q04DX003 (ip), vehicle: saline with Tween-80
[3] = T/C endpoint: mean survival time, dose: 100.0 mg/kg/injection, schedule: Q04DX003 (ip), vehicle: saline with Tween-80
[4] = T/C endpoint: mean survival time, dose: 400.0 mg/kg/injection, schedule: Q01DX009 (ip), vehicle: saline with Tween-80
[5] = T/C endpoint: mean survival time, dose: 200.0 mg/kg/injection, schedule: Q04DX003 (ip), vehicle: saline with Tween-80
[6] = T/C endpoint: mean survival time, dose: 200.0 mg/kg/injection, schedule: Q01DX009 (ip), vehicle: saline
[7] = T/C endpoint: mean survival time, dose: 25.0 mg/kg/injection, schedule: Q01DX009 (ip), vehicle: saline with Tween-80
[8] = T/C endpoint: mean survival time, dose: 50.0 mg/kg/injection, schedule: Q01DX009 (ip), vehicle: saline with Tween-80

In the case of Nc1ccc(/C=C/C(=O)Nc2ccc(S(=O)(=O)F)cc2)cc1, the survivor count [1] is reported as 6 of 6.

For C[n+]1cccc(NC(=O)c2ccc(NC(=O)c3ccc(C(=O)Nc4ccc(NC(=N)N)cc4)cc3)cc2)c1, the T/C (T/C endpoint: mean survival time, dose: 5.0 mg/kg/injection, schedule: Q01DX009 (ip), vehicle: saline) was 143 and 149 % of control.

With COc1cccc2c1C(=O)c1c(O)c3c(c(O)c1C2=O)CC(O)(/C(C)=N/NC(=O)CCC(=O)N/N=C(\C)C1(O)Cc2c(O)c4c(c(O)c2C(OC2CC(N)C(O)C(C)O2)C1)C(=O)c1c(OC)cccc1C4=O)CC3OC1CC(N)C(O)C(C)O1 (centres undefined) the T/C (T/C endpoint: mean survival time, dose: 6.25 mg/kg/injection, schedule: Q01DX009 (ip), vehicle: water) was 127 % of control, the T/C (T/C endpoint: mean survival time, dose: 12.5 mg/kg/injection, schedule: Q01DX009 (ip), vehicle: water) was 145 % of control and the survivor count (T/C endpoint: mean survival time, dose: 25.0 mg/kg/injection, schedule: Q01DX009 (ip), vehicle: water) was 6 of 6.

In the case of CON(C)CC(O)c1ccccc1 (centres undefined), the survivor count [2] is reported as 3 of 6.

With NC(=O)NN=C1CCC1 the survivor count (T/C endpoint: mean survival time, dose: 150.0 mg/kg/injection, schedule: Q01DX001 (ip), vehicle: saline) was 3 of 6 and the survivor count (T/C endpoint: mean survival time, dose: 300.0 mg/kg/injection, schedule: Q01DX001 (ip), vehicle: saline) was 2 of 6.

In the case of O=[N+]([O-])c1ccccc1C[P+](c1ccccc1)(c1ccccc1)c1ccccc1, the survivor count [3] is reported as 1 of 6.

With NC(=O)c1ccc(Cl)c(Cl)c1 the survivor count [4] was 0 of 6.

In the case of CC1OC1C(=O)C1(O)C(C)C(O)C23OC2(C(O)c2c(O)cccc2C3=O)C1O (centres undefined), the survivor count (T/C endpoint: mean survival time, dose: 16.0 mg/kg/injection, schedule: Q01DX009 (ip), vehicle: Klucel (hydroxypropylcellulose) (HPC)) is reported as 1 of 6.

With OC1(c2ccccc2)CCN(C/C=C/c2ccccc2)CC1 the survivor count (T/C endpoint: mean survival time, dose: 200.0 mg/kg/injection, schedule: Q01DX001 (ip), vehicle: saline with Tween-80) was 3 of 6 and the survivor count [1] was 0 of 6.

In the case of CC([O-])C(=O)[O-].NCC1CCC1CN.[Pt+4] (centres undefined), the T/C (T/C endpoint: median survival time, dose: 3.12 mg/kg/injection, schedule: Q04DX003 (ip), vehicle: saline) is reported as 125 % of control, the T/C (T/C endpoint: median survival time, dose: 6.25 mg/kg/injection, schedule: Q04DX003 (ip), vehicle: saline) is reported as 144 % of control and the survivor count (T/C endpoint: median survival time, dose: 50.0 mg/kg/injection, schedule: Q04DX003 (ip), vehicle: saline) is reported as 6 of 6. The survivor count (T/C endpoint: median survival time, dose: 100.0 mg/kg/injection, schedule: Q04DX003 (ip), vehicle: saline) was 6 of 6 and the survivor count (T/C endpoint: median survival time, dose: 200.0 mg/kg/injection, schedule: Q04DX003 (ip), vehicle: saline) was 0 of 6.

For C1CCN(CN2CCCCC2)CC1, the survivor count (T/C endpoint: mean survival time, dose: 100.0 mg/kg/injection, schedule: Q04DX003 (ip), vehicle: saline) was 4 of 6.

In the case of COc1cccc(C(=O)c2ccncc2C)c1OC, the survivor count (T/C endpoint: mean survival time, dose: 400.0 mg/kg/injection, schedule: Q01DX009 (ip), vehicle: water) is reported as 1 of 6.

In the case of O=C(O)c1ccccc1C(=O)Nc1ccc([N+](=O)[O-])cc1, the survivor count [5] is reported as 3 of 3.

CN=C(NC)c1cccc(NC(=O)/C=C\c2ccc(/C=C/C(=O)Nc3cccc(C(=NC)NC)c3)cc2)c1 was tested, and the survivor count (T/C endpoint: median survival time, dose: 10.0 mg/kg/injection, schedule: Q01DX009 (ip), vehicle: saline) was 0 of 6 and the survivor count (T/C endpoint: median survival time, dose: 20.0 mg/kg/injection, schedule: Q01DX009 (ip), vehicle: saline) was 0 of 6.

C[NH-].[Cl][Pt+2][Cl].[NH-]C1CC1 was tested, and the T/C (T/C endpoint: mean survival time, dose: 6.25 mg/kg/injection, schedule: Q04DX003 (ip), vehicle: saline with Tween-80) was 129 % of control, the T/C (T/C endpoint: mean survival time, dose: 12.5 mg/kg/injection, schedule: Q04DX003 (ip), vehicle: saline) was 131 % of control and the survivor count (T/C endpoint: mean survival time, dose: 25.0 mg/kg/injection, schedule: Q04DX003 (ip), vehicle: saline with Tween-80) was 6 of 6. For the same compound, the survivor count (T/C endpoint: mean survival time, dose: 50.0 mg/kg/injection, schedule: Q04DX003 (ip), vehicle: saline with Tween-80) was 2 of 6, the survivor count [3] was 2 of 6 and the survivor count [5] was 2 of 6.

For O=C(CBr)c1cc2ncccc2c2ccccc12, the survivor count (T/C endpoint: mean survival time, dose: 200.0 mg/kg/injection, schedule: Q01DX009 (ip), vehicle: other) was 0 of 6 and the survivor count (T/C endpoint: mean survival time, dose: 400.0 mg/kg/injection, schedule: Q01DX009 (ip), vehicle: other) was 0 of 6.

With COc1ccc(Cl)cc1Cn1ccnc1 the survivor count (T/C endpoint: mean survival time, dose: 200.0 mg/kg/injection, schedule: Q01DX001 (ip), vehicle: saline) was 0 of 6, the survivor count [6] was 0 of 3 and 0 of 6 and the survivor count (T/C endpoint: mean survival time, dose: 200.0 mg/kg/injection, schedule: Q04DX003 (ip), vehicle: saline) was 3 of 6. For the same compound, the survivor count (T/C endpoint: mean survival time, dose: 400.0 mg/kg/injection, schedule: Q04DX002 (ip), vehicle: saline) was 0 of 3 and 0 of 6.

With Cc1ccc(N=C(N)NC#N)cc1C the survivor count [4] was 6 of 6.

CNC[C@@H](O)c1ccc(O)c(O)c1 was tested, and the survivor count (T/C endpoint: mean survival time, dose: 10.0 mg/kg/injection, schedule: Q01DX009 (ip), vehicle: saline) was 1 of 6, the survivor count (T/C endpoint: mean survival time, dose: 15.0 mg/kg/injection, schedule: Q01DX001 (ip), vehicle: saline) was 0 of 6 and the survivor count (T/C endpoint: mean survival time, dose: 20.0 mg/kg/injection, schedule: Q01DX009 (ip), vehicle: saline) was 0 of 6. For the same compound, the survivor count (T/C endpoint: mean survival time, dose: 30.0 mg/kg/injection, schedule: Q01DX001 (ip), vehicle: saline) was 0 of 6, the survivor count (T/C endpoint: mean survival time, dose: 40.0 mg/kg/injection, schedule: Q01DX009 (ip), vehicle: saline) was 0 of 6 and the survivor count (T/C endpoint: mean survival time, dose: 60.0 mg/kg/injection, schedule: Q01DX001 (ip), vehicle: saline) was 0 of 6. The survivor count (T/C endpoint: mean survival time, dose: 120.0 mg/kg/injection, schedule: Q01DX001 (ip), vehicle: saline) was 0 of 6.

For CCCCCCCCCCCCCCCC[n+]1ccc(C(N)=O)cc1, the survivor count [7] was 6 of 6 and the survivor count [8] was 2 of 6.

In the case of NC(=S)N/N=C\c1nccc2c(N)cccc12, the T/C (T/C endpoint: mean survival time, dose: 6.25 mg/kg/injection, schedule: Q01DX009 (ip), vehicle: saline with Tween-80, evaluated on day 30) is reported as 142 % of control, the T/C (T/C endpoint: mean survival time, dose: 6.25 mg/kg/injection, schedule: Q01DX009 (ip), vehicle: saline with Tween-80, evaluated on day 60) is reported as 137 % of control and the T/C (T/C endpoint: mean survival time, dose: 9.4 mg/kg/injection, schedule: Q01DX009 (ip), vehicle: saline with Tween-80) is reported as 126 % of control. For the same compound, the T/C (T/C endpoint: mean survival time, dose: 12.5 mg/kg/injection, schedule: Q01DX009 (ip), vehicle: saline with Tween-80) was 145 % of control, the T/C (T/C endpoint: mean survival time, dose: 18.8 mg/kg/injection, schedule: Q01DX009 (ip), vehicle: saline with Tween-80) was 132 % of control and the T/C [7] was 134 % of control [5 of 6 alive]. The T/C (T/C endpoint: mean survival time, dose: 37.5 mg/kg/injection, schedule: Q01DX009 (ip), vehicle: saline with Tween-80) was 143 % of control, the survivor count [8] was 6 of 6 and the survivor count (T/C endpoint: mean survival time, dose: 75.0 mg/kg/injection, schedule: Q01DX009 (ip), vehicle: saline with Tween-80) was 6 of 6. For the same compound, the survivor count (T/C endpoint: mean survival time, dose: 150.0 mg/kg/injection, schedule: Q01DX009 (ip), vehicle: saline with Tween-80) was 4 of 6.

With C1=Cc2ccccc2/C1=C/c1cccc(/C=C2\C=Cc3ccccc32)c1 the survivor count [3] was 6 of 6, the survivor count [5] was 6 of 6 and the survivor count [2] was 6 of 6.

In the case of CC(C)(C)OC(=O)N1CCCC1C(=O)Oc1ccc([N+](=O)[O-])cc1 (centres undefined), the survivor count [5] is reported as 6 of 6 and the survivor count [2] is reported as 6 of 6.

For c1cc(C[N+]23CN4CN(CN(C4)C2)C3)cs1, the survivor count [5] was 4 of 6 and the survivor count [2] was 0 of 6.

In the case of O=C(O)c1ccccc1C(=O)OCC(c1ccccc1)c1ccccc1, the survivor count [2] is reported as 0 of 3.

With CCOC(=O)c1c2c3c(c(Br)ccc3n(C)c1=O)C(=O)c1ccccc1-2 the survivor count (T/C endpoint: mean survival time, dose: 100.0 mg/kg/injection, schedule: Q01DX009 (ip), vehicle: saline) was 6 of 6, the survivor count [6] was 1 of 6 and the survivor count (T/C endpoint: mean survival time, dose: 400.0 mg/kg/injection, schedule: Q01DX009 (ip), vehicle: saline) was 0 of 6.

For NC(=O)NNc1ccc([N+](=O)[O-])cc1[N+](=O)[O-], the survivor count [3] was 3 of 6, the survivor count [5] was 3 of 6 and the survivor count [2] was 1 of 6.

In the case of O=P(O)(O)OCC(O)CO.[NH-]C1CCCCC1[NH-].[Pt+2] (centres undefined), the T/C (T/C endpoint: mean survival time, dose: 2.35 mg/kg/injection, schedule: Q04DX003 (ip), vehicle: other) is reported as 127 % of control and the T/C (T/C endpoint: mean survival time, dose: 4.69 mg/kg/injection, schedule: Q04DX003 (ip), vehicle: other) is reported as 143 % of control.

With CCn1c(C)cc(=O)c2ccccc21 the survivor count (T/C endpoint: mean survival time, dose: 400.0 mg/kg/injection, schedule: Q04DX002 (ip), vehicle: saline with Tween-80) was 0 of 3.

O=C(O)c1cc2ccccc2oc1=O was tested, and the survivor count [3] was 0 of 3.

In the case of Cc1ccc(NC(=O)C2CCC(C)(C(=O)O)C2(C)C)cc1 (centres undefined), the survivor count [2] is reported as 3 of 6.
